Assay [1] concerns the target T1, UBR1 (endogenous, 786-O cells) (human (endogenous in 786-O)), Q8IWV7.
T1 chain: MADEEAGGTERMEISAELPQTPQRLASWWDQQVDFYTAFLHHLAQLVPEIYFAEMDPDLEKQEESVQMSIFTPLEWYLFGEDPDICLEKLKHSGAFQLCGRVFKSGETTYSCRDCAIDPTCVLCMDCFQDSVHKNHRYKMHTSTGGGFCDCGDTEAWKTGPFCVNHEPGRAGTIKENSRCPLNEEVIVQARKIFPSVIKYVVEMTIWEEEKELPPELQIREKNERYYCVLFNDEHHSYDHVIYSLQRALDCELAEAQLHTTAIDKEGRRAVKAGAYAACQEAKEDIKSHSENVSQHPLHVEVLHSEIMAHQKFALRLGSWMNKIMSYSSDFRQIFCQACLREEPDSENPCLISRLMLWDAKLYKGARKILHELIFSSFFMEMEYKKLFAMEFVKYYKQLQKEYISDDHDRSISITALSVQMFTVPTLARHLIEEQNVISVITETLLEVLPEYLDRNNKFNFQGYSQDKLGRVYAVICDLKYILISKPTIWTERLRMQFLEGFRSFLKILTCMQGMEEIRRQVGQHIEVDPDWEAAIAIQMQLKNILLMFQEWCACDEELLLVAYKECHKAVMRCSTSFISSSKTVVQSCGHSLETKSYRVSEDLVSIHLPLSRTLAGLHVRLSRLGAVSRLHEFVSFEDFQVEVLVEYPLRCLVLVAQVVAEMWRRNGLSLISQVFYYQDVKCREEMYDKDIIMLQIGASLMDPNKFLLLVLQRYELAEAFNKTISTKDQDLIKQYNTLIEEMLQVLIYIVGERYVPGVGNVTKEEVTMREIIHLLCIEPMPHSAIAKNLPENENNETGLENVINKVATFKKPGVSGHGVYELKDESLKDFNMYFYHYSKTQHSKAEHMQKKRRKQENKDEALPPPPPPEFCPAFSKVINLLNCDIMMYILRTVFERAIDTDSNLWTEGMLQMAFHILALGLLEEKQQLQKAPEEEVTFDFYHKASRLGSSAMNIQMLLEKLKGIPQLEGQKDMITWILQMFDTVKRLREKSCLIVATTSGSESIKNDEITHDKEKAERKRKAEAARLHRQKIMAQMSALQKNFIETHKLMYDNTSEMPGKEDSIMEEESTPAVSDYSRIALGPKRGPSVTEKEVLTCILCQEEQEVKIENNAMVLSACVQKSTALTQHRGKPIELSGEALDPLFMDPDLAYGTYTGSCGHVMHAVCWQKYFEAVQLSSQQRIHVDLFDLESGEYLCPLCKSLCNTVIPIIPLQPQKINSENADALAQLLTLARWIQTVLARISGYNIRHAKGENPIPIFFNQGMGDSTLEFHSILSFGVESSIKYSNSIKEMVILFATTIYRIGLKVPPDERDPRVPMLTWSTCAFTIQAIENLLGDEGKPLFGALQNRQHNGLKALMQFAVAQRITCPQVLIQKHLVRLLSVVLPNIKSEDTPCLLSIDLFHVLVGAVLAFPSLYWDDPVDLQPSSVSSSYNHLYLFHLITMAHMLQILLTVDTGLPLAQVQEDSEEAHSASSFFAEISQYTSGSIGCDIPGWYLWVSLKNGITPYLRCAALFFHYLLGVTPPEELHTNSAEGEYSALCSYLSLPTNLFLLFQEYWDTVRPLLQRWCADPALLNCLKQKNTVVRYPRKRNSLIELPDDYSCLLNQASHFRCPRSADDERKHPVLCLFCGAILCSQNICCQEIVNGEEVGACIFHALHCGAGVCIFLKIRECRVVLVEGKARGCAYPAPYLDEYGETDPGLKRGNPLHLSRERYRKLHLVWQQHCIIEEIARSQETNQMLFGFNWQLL
The assay is described as follows: co-IP; endogenous proteins in 786-O cell lysates; immunoprecipitation with anti-TRIB3 or anti-PLIN2, immunoblot; PLIN2 with TEB4 also in cells in which TRIB3 was or was not silenced (shRNA). The settings on record: remark: other sources report otherwise. In general terms: In western blotting, separated proteins are transferred to a membrane and probed.

In assay [2] the target is AIP4 (endogenous, 786-O cells) (human (endogenous in 786-O)), Q96J02. The assay is described as above. The following applies: remark: other sources report otherwise.

Results are given in words; binding and its absence hold for the method and conditions named. In cells and extracts the contact can be indirect.

Among the data in publication PMC10985002 are binding values, retold here.

B1: PLIN2 (endogenous, 786-O cells), Q99541 1-437 (protein)
chain: MASVAVDPQPSVVTRVVNLPLVSSTYDLMSSAYLSTKDQYPYLKSVCEMAENGVKTITSVAMTSALPIIQKLEPQIAVANTYACKGLDRIEERLPILNQPSTQIVANAKGAVTGAKDAVTTTVTGAKDSVASTITGVMDKTKGAVTGSVEKTKSVVSGSINTVLGSRMMQLVSSGVENALTKSELLVEQYLPLTEEELEKEAKKVEGFDLVQKPSYYVRLGSLSTKLHSRAYQQALSRVKEAKQKSQQTISQLHSTVHLIEFARKNVYSANQKIQDAQDKLYLSWVEWKRSIGYDDTDESHCAEHIESRTLAIARNLTQQLQTTCHTLLSNIQGVPQNIQDQAKHMGVMAGDIYSVFRNAASFKEVSDSLLTSSKGQLQKMKESLDDVMDYLVNNTPLNWLVGPFYPQLTESQNAQDQGAEMDKSSQETQRSEHKTH
Turning to B1, the binding entry in assay [1] and in assay [2] was “no binding” throughout.
